Data from PubChem BioAssay AID328 (DTP/NCI, 2004).
The list is a part of this screen's results and no random one: it gathers tests that were run many times, whatever their T/C, doses with no T/C, and many T/C values between a quarter and a half above the control. Other doses and runs of a compound stand elsewhere. T/C is the treated group as % of the vehicle group. Some entries give survivors of the animals treated and no T/C: the source holds a T/C of zero for them, seemingly a mark for toxic or unscored doses. Some doses without a T/C left all or most animals alive at the check, yet need not have been tolerated: survival well below the control is almost never listed, so the zero probably covers shortened survival too. Survivors were counted at the toxicity check, usually on the fifth day, unless a day is given; later deaths do not show. Schedule codes are those of the source, read here as Q, the interval in days (D) or hours (H), X, the number of doses. For survival time, the PubChem record calls one and a half times the control and up active, and a quarter to a half above the control has no call in these data; cut-offs in other NCI protocols can differ. Some entries hold several experiments; the values are given in rising order.

Test system: BDF1 mice, P388 leukemia ip, median survival T/C
Assay: NCI In Vivo Anticancer Drug Screen. Data for tumor model P388 Leukemia (intraperitoneal) in B6D2F1 (BDF1) mice
Details: T/C endpoint: median survival time, higher T/C = longer survival
In short: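 Antitumour effect was judged in vivo: survival in drug-treated mice, normalised to that of vehicle-dosed controls, gives the reported T/C.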

[1] = dose: 200.0 mg/kg/injection, schedule: Q01DX009 (ip), vehicle: Klucel (hydroxypropylcellulose) (HPC)
[2] = dose: 200.0 mg/kg/injection, schedule: Q01DX009 (ip), vehicle: saline with Tween-80
[3] = dose: 400.0 mg/kg/injection, schedule: Q01DX009 (ip), vehicle: saline with Tween-80
[4] = dose: 100.0 mg/kg/injection, schedule: Q01DX009 (ip), vehicle: saline with Tween-80

COC1C(O)C(C)OC(OC2C(Oc3cccc4c(O)c5c(=O)oc6ccc(C)c7c(=O)oc(c34)c5c67)OC(C)C(O)C2O)C1O (configuration not stated)
T/C (dose: 0.78 mg/kg/injection, schedule: Q01DX009 (ip), vehicle: other): 130 % of control | T/C (dose: 1.56 mg/kg/injection, schedule: Q01DX009 (ip), vehicle: Klucel (hydroxypropylcellulose) (HPC)): 148 % of control | T/C (dose: 1.56 mg/kg/injection, schedule: Q01DX009 (ip), vehicle: other): 145 % of control | T/C (dose: 3.12 mg/kg/injection, schedule: Q01DX009 (ip), vehicle: other): 128 % of control | T/C (dose: 6.25 mg/kg/injection, schedule: Q01DX009 (ip), vehicle: other): 139 and 141 % of control | survivor count [1]: 0 of 6 | survivor count [2]: 1 of 3 | survivor count [3]: 0 of 3

CC(=O)c1cc(CN(CCCl)CCCl)c(O)c(CN(CCCl)CCCl)c1O
T/C (dose: 3.13 mg/kg/injection, schedule: Q01DX009 (ip), vehicle: Klucel (hydroxypropylcellulose) (HPC)): 127 % of control | T/C (dose: 12.5 mg/kg/injection, schedule: Q01DX009 (ip), vehicle: Klucel (hydroxypropylcellulose) (HPC)): 131 % of control | survivor count (dose: 25.0 mg/kg/injection, schedule: Q01DX009 (ip), vehicle: Klucel (hydroxypropylcellulose) (HPC)): 3 of 6 | survivor count (dose: 50.0 mg/kg/injection, schedule: Q01DX009 (ip), vehicle: Klucel (hydroxypropylcellulose) (HPC)): 1 of 6 | survivor count (dose: 100.0 mg/kg/injection, schedule: Q01DX009 (ip), vehicle: Klucel (hydroxypropylcellulose) (HPC)): 0 of 6 | survivor count [1]: 0 of 6

COc1cccc2c1C(=O)c1c(O)c3c(c(O)c1C2=O)CC(O)(C(=O)CO)CC3OC1CC(N)C(O)C(C)O1 (configuration not stated)
survivor count (dose: 8.0 mg/kg/injection, schedule: Q01DX004 (ip), vehicle: water): 8 of 8

Cc1ccccc1N1C(=O)CSC1=S
T/C (dose: 200.0 mg/kg/injection, schedule: Q04DX003 (ip), vehicle: saline with Tween-80): 127 % of control

S=C(Nc1ccccc1)N(C1CCCCC1)C1CCCCC1
T/C [4]: 135 % of control | T/C [3]: 130 % of control

CC(C)(C)c1cc(I)c(O)c(CN)c1
survivor count (dose: 100.0 mg/kg/injection, schedule: Q01DX009 (ip), vehicle: saline): 3 of 6

CCCCOc1ccc(C(=O)N/N=C(\C)[C@]2(O)Cc3c(O)c4c(c(O)c3[C@@H](OC3CC(N)C(O)C(C)O3)C2)C(=O)c2c(OC)cccc2C4=O)cc1 (some centres not stated)
T/C (dose: 1.0 mg/kg/injection, schedule: Q01DX009 (ip), vehicle: water): 125 % of control | T/C (dose: 4.0 mg/kg/injection, schedule: Q01DX009 (ip), vehicle: water): 147 % of control

CC(=O)Nc1c([N+](=O)[O-])ccc(Cl)c1Cl
survivor count (dose: 200.0 mg/kg/injection, schedule: Q04DX003 (ip), vehicle: Klucel (hydroxypropylcellulose) (HPC)): 3 of 6 | survivor count (dose: 400.0 mg/kg/injection, schedule: Q04DX003 (ip), vehicle: Klucel (hydroxypropylcellulose) (HPC)): 2 of 6

CS(=O)(=O)ON1C(=O)c2ccccc2C1=O
T/C (dose: 50.0 mg/kg/injection, schedule: Q04DX003 (ip), vehicle: saline): 135 % of control | survivor count (dose: 200.0 mg/kg/injection, schedule: Q04DX003 (ip), vehicle: saline): 5 of 6 | survivor count (dose: 400.0 mg/kg/injection, schedule: Q04DX003 (ip), vehicle: saline): 0 of 6

CN(C)CC1CCC/C(=C\C=C\c2ccccc2)C1=O (configuration not stated)
survivor count (dose: 8.75 mg/kg/injection, schedule: Q01DX009 (ip), vehicle: Klucel (hydroxypropylcellulose) (HPC)): 6 of 6 | survivor count (dose: 160.0 mg/kg/injection, schedule: Q04DX003 (ip), vehicle: Klucel (hydroxypropylcellulose) (HPC)): 3 of 6 | survivor count (dose: 240.0 mg/kg/injection, schedule: Q04DX003 (ip), vehicle: Klucel (hydroxypropylcellulose) (HPC)): 0 of 6

FC(Cl)(Cl)c1nc2nc(Cl)c(Cl)nc2[nH]1
survivor count (dose: 200.0 mg/kg/injection, schedule: Q04DX003 (ip), vehicle: water): 2 of 6

COC(OC)C1=C(Cl)C(Cl)=C(Cl)/C1=N\Nc1ccccc1
survivor count (dose: 400.0 mg/kg/injection, schedule: Q01DX001 (ip), vehicle: saline with Tween-80): 1 of 6

OCC1OC(OC2(CO)OC(CO)C(O)C2O)C(O)C(O)C1O (configuration not stated)
T/C (dose: 11.0 mg/kg/injection, schedule: Q01DX009 (ip), vehicle: saline): 135 % of control

COC(=O)C1CCCCC1C(=O)OC (configuration not stated)
T/C (dose: 400.0 mg/kg/injection, schedule: Q01DX009 (ip), vehicle: saline): 127 % of control

O=C(CI)Nc1ccc(O)c2ccccc12
survivor count (dose: 25.0 mg/kg/injection, schedule: Q01DX009 (ip), vehicle: water): 0 of 6 | survivor count (dose: 50.0 mg/kg/injection, schedule: Q04DX003 (ip), vehicle: water): 0 of 6 | survivor count (dose: 100.0 mg/kg/injection, schedule: Q04DX003 (ip), vehicle: water): 0 of 6

CC1CC=C(C2CC(C)CC(N(C)C)C2=N)CC1 (configuration not stated)
survivor count (dose: 100.0 mg/kg/injection, schedule: Q01DX009 (sc), vehicle: olive oil, sesame oil, peanut oil): 6 of 6 | survivor count (dose: 200.0 mg/kg/injection, schedule: Q01DX009 (sc), vehicle: olive oil, sesame oil, peanut oil): 5 of 6 | survivor count (dose: 400.0 mg/kg/injection, schedule: Q01DX009 (sc), vehicle: olive oil, sesame oil, peanut oil): 0 of 6

CCC12C=CCN3CCC4(c5cc(C(CN6CCCCC6)c6cn(C)c7ccccc67)c(OC)cc5N(C)C4C(O)(C(=O)OC)C1OC(C)=O)C32 (configuration not stated)
survivor count (dose: 64.0 mg/kg/injection, schedule: Q01DX009 (ip), vehicle: saline): 3 of 6 | survivor count (dose: 128.0 mg/kg/injection, schedule: Q01DX009 (ip), vehicle: saline): 0 of 6

COC1CCC(OC2C(C)C(O)(C(C)C(=O)O)OC(CC3CC(OC)C(C)C4(O3)OC(C)(C3CCC(C5CCC(C6OC(C)(O)C(C)C(OC)C6C)O5)O3)C(OC)C4C)C2(C)OC)OC1C (configuration not stated)
survivor count (dose: 2.5 mg/kg/injection, schedule: Q01DX009 (ip), vehicle: saline with Tween-80): 1 of 6 | survivor count (dose: 2.5 mg/kg/injection, schedule: Q01DX009 (ip), vehicle: saline): 0 of 6 | survivor count (dose: 5.0 mg/kg/injection, schedule: Q01DX009 (ip), vehicle: saline with Tween-80): 0 of 6 | survivor count (dose: 10.0 mg/kg/injection, schedule: Q01DX009 (ip), vehicle: saline with Tween-80): 0 of 6 | survivor count (dose: 20.0 mg/kg/injection, schedule: Q01DX009 (ip), vehicle: saline with Tween-80): 0 of 6

C=C1CC(C2CCC(C)(C)C2)OC1=O (configuration not stated)
survivor count (dose: 100.0 mg/kg/injection, schedule: Q04DX002 (ip), vehicle: saline with Tween-80): 6 of 6

COc1cccc2c1C(=O)c1c(O)c3c(c(O)c1C2=O)C[C@@](O)(C(O)O)C[C@@H]3OC1CC(N)C(O)C(C)O1 (some centres not stated)
survivor count (dose: 32.0 mg/kg/injection, schedule: Q01DX009 (ip), vehicle: water): 3 of 3 | survivor count (dose: 64.0 mg/kg/injection, schedule: Q01DX009 (ip), vehicle: water): 0 of 3

CC1(C)N=C(N)N=C(N)N1c1ccc(CCC(=O)Nc2ccc(S(=O)(=O)F)cc2)c(Cl)c1
survivor count [4]: 6 of 6 | survivor count [2]: 5 of 6 | survivor count [3]: 0 of 6

C=C(C)C(=O)OCC1CO1 (configuration not stated)
survivor count (dose: 400.0 mg/kg/injection, schedule: Q01DX010 (ip), vehicle: saline): 0 of 6

CCOC(=O)c1ccc(N=CNc2ccc(C(=O)OCC)cc2)cc1
survivor count (dose: 12.5 mg/kg/injection, schedule: Q04DX003 (ip), vehicle: saline with Tween-80): 6 of 6 | survivor count (dose: 25.0 mg/kg/injection, schedule: Q01DX009 (ip), vehicle: saline with Tween-80): 6 of 6 | survivor count (dose: 50.0 mg/kg/injection, schedule: Q01DX009 (ip), vehicle: saline with Tween-80): 6 of 6 | survivor count [4]: 6 of 6
